We go through 2 molecules from paper doi:10.1101/827600.

These are yes or no findings as the source states them, for the method shown. Binding can be weak; no strength is given.

The experiment has as its target BD-Mer1_(23-341) (Ustilago maydis). The experiment can be described thus: two-hybrid.

As to AtRFI2B (from UniProt F4J8E5) (enzyme), the binding result is “binds”.

B1: AtRFI2A (enzyme, UniProt O82239 1-358)
chain: MAGAKDSGCDDDLRIAGGCDPGKRGNPEDSSSPVEVSCSICLESVLDDGTRSKAKLQCGHQFHLDCIGSAFNMKGAMQCPNCRNVEKGQWLYANGSTRPFPEFSMEDWIPEEDLYGLSYPEMQYRVHWCPFGELSQAAASFEELEPATTTYHTEFHGHHAAAVNHSYLAYVGPGPAATPRTSDNNSTDDHPWNSHSNDHFHQLPVAPQYHHHSPSFSLPAAHVVDGEVDSSAARGLPYAHPFLFSHRSNQRSSPAINSYQGSSTQMREQHHAYNHQRQQHHANGPTLASPLISMTRRGLPPPPPPPPMPDQNVGFFIYPGGHHEPETDQIHAWERDWFPHFPVPSNHRTIPSLWHRHF
Consider B1, for which the binding entry was “binds”.
